According to US9839614B2, “Nanoparticle and polymer formulations for thyroid hormone analogs, antagonists, and formulations and uses thereof” (NANOPHARMACEUTICALS LLC, priority 2009, dated 2017):
Some entries share one result that the patent states for a list of compounds.

Assays:
[1] = test system: matrigel plug angiogenesis; assay: Mouse matrigel model of angiogenesis (plug hemoglobin); format: in vivo, mice (C57BL/6NCr); details: 10 μg/plug
Method: Normal male mice (C57BL/6NCr) 6-8 weeks of age and weighing ˜20 g were purchased from Taconic farm. Animals were housed 4 per cage, in controlled conditions of temperature (20-24° C.); humidity (60-70%) and 12 hrs. light/dark cycle provided with food and water ad libitum. […] Aliquots of matrigel were placed into cold polypropylene tubes to prevent the matrigel from solidifying and the angiogenesis promoter added to matrigel with or without agonist. Mice were treated daily. Matrigel was subcutaneously injected as triple injection per animal at 100 μL/animal. At day 14 post plug implant all animals were killed in CO2 chamber and matrigel plugs were collected. Plug hemoglobin content was analyzed from three implants/mice (n=6 per group) to measure angiogenesis.
The matrigel plugs dissected from the mice were carefully stripped of any remaining peritoneum. The plugs were placed into 0.5 mL tube of ddH2O and homogenized for 5-10 min. […] Absorbance was read with a Microplate Manager ELISA reader at 540 nm. […] Hemoglobin concentration is a reflection of the number of blood vessels in the plugs.

[2] = test system: human medullary carcinoma of the thyroid (MTC) xenografts; assay: MTC xenograft in nude mice

Row | SMILES | Inhibition of FGF-induced angiogenesis, grade [1] | reduction in tumor-associated neovascularization (tumor hemoglobin) ([2]; Tetrac 10 mg/kg i.p. or Tetrac NP 1 mg/kg i.p. daily for 21 days) | reduction of tumor mass compared to controls ([2]; Tetrac 10 mg/kg i.p., nanoparticulate Tetrac 1 mg/kg i.p., end of study) | tumor size after treatment ([2]; Tetrac 10 mg/kg or Tetrac NP 1 mg/kg i.p. daily, 21 days) [mm^3] | time to detected reduction in tumor size ([2]; after initiation of treatment) [days]
1 | O=C(Cc1cc(I)c(Oc2cc(I)c(O)c(I)c2)c(I)c1)NC1CCCCC1 [Tetrac analog 4, N-cyclohexyl-2-(4-(4-hydroxy-3,5-diiodophenoxy)-3,5-diiodophenyl)acetamide] | strong (compounds were considered to be strong inhibitors if they achieved more than 50% inhibition as compared to the control) | – | – | – | –
2 | O=C(Cc1cc(I)c(Oc2cc(I)c(OCC3CO3)c(I)c2)c(I)c1)NC1CCCCC1 (stereo not drawn) [Tetrac analog 6, N-cyclohexyl-2-(4-(3,5-diiodo-4-(oxiran-2-ylmethoxy)phenoxy)-3,5-diiodophenyl)acetamide] | strong (compounds were considered to be strong inhibitors if they achieved more than 50% inhibition as compared to the control) | – | – | – | –
3 | O=C(O)Cc1cc(I)c(Oc2cc(I)c(O)c(I)c2)c(I)c1 [Tetrac, tetraiodothyroacetic acid] | – | 70-80% | 65-80% | < 100 | ≤ 2
